Test results as given in article PMC3641332.
No constants are given. Whether binding was seen depends on the method and setting. In cells and extracts the contact can be indirect. Some entries that bind do so weakly or less than the wild type. Sequences can lack the tags named with a protein.

Amino acid sequences for entries named in this document (tags omitted). A change or cut given only in a name is not applied to a line headed by its entry.
UniProt Q09472: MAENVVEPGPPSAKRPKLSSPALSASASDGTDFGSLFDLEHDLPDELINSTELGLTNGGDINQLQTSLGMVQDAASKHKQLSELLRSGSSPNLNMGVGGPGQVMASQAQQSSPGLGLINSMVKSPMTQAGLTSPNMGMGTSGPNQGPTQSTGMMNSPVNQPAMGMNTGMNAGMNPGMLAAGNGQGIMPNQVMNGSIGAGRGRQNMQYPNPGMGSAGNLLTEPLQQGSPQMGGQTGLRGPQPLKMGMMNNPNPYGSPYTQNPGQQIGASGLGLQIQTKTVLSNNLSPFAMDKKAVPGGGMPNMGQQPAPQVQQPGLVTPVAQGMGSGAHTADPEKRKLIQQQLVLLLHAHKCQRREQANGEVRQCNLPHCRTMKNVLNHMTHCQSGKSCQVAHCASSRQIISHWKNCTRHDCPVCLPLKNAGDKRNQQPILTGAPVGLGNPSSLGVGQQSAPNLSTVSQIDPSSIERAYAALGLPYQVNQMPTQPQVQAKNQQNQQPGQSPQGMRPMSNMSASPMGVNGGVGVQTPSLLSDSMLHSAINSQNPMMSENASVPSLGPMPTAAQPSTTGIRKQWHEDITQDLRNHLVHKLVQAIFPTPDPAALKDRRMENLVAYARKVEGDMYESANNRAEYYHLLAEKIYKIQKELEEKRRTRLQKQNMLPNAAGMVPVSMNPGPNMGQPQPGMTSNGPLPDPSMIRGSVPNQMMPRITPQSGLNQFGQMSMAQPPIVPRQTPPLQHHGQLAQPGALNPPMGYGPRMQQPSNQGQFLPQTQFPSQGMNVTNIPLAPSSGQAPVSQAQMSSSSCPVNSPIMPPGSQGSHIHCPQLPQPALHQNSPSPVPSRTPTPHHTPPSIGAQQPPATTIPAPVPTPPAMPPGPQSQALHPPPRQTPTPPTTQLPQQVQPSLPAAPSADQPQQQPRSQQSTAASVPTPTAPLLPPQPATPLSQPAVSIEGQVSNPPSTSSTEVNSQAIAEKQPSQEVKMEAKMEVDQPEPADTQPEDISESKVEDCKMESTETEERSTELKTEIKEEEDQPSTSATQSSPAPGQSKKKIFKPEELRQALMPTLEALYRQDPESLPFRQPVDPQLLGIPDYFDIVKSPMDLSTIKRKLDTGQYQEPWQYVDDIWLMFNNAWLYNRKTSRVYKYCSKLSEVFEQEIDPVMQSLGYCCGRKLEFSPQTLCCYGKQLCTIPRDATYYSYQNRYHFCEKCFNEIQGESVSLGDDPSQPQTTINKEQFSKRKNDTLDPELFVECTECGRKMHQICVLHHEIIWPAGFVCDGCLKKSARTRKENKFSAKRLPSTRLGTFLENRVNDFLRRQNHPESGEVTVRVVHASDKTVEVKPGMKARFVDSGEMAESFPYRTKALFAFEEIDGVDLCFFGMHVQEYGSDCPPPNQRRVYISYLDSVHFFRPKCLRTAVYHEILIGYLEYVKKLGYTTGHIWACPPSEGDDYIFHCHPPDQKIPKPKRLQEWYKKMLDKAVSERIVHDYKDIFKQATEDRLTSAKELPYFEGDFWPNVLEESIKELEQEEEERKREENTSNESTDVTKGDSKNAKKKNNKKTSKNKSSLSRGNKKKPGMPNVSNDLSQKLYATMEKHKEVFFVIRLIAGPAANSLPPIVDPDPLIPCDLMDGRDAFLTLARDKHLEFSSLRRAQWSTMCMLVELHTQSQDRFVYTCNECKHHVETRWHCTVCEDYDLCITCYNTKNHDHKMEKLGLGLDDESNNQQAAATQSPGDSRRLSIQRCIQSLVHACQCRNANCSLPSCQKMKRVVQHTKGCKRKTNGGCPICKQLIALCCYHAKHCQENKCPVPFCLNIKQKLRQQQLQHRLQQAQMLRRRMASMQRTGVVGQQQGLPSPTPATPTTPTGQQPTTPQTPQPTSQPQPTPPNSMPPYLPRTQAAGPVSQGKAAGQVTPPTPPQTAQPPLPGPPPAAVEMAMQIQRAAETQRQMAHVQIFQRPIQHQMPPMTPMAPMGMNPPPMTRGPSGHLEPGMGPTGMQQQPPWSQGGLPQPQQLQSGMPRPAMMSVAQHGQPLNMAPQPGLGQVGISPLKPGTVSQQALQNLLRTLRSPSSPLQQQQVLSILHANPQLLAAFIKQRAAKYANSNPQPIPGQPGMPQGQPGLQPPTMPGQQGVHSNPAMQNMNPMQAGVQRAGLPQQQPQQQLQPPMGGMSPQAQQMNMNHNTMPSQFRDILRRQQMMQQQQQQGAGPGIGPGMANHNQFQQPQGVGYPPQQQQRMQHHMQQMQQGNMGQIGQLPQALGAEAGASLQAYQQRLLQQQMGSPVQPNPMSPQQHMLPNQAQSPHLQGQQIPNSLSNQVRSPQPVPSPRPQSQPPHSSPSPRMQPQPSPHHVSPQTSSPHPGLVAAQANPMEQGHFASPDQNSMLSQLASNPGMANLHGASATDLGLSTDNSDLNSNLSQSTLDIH

T1: FK506 binding protein 51 (FKBP51), Flag-tagged (UniProt Q13451)
T1 sequence: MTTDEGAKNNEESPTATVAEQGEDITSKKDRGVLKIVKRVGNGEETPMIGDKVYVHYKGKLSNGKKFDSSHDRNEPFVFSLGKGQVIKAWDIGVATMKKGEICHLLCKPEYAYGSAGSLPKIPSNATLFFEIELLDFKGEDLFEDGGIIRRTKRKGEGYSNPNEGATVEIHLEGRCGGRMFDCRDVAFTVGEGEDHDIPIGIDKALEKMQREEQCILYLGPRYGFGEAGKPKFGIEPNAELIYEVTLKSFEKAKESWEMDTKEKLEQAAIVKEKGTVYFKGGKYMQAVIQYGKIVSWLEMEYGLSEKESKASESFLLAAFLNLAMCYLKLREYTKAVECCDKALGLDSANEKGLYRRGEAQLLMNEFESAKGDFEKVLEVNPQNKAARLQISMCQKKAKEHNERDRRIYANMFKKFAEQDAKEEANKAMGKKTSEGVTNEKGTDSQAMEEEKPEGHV


Experiments:
[1] = molecular target: T1, FK506 binding protein 51 (FKBP51), Flag-tagged; experiment: co-IP; 500 ug total lysate (modified RIPA) of SAN melanoma cells transfected with FKBP51/Flag; precipitated with 3 ug anti-Flag (M2) overnight at 4°C, protein A/G plus-agarose, washed in RIPA; western blot with anti-p300
[2] = molecular target: E1A binding protein 300 (p300) (human (endogenous in SAN melanoma cells)) (UniProt Q09472); experiment: co-IP; 500 ug total lysate (modified RIPA) of SAN melanoma cells transfected with FKBP51/Flag; precipitated with 3 ug anti-KAT3B/p300 overnight at 4°C, protein A/G plus-agarose, washed in RIPA; western blot with anti-FKBP51

Row | binding [1] | binding [2] | Molecule
1 | binds | – | E1A binding protein 300 (p300) (from UniProt Q09472 1-2414)
2 | – | binds | FK506 binding protein 51 (FKBP51), Flag-tagged (protein, UniProt Q13451 1-457) MTTDEGAKNNEESPTATVAEQGEDITSKKDRGVLKIVKRVGNGEETPMIGDKVYVHYKGKLSNGKKFDSSHDRNEPFVFSLGKGQVIKAWDIGVATMKKGEICHLLCKPEYAYGSAGSLPKIPSNATLFFEIELLDFKGEDLFEDGGIIRRTKRKGEGYSNPNEGATVEIHLEGRCGGRMFDCRDVAFTVGEGEDHDIPIGIDKALEKMQREEQCILYLGPRYGFGEAGKPKFGIEPNAELIYEVTLKSFEKAKESWEMDTKEKLEQAAIVKEKGTVYFKGGKYMQAVIQYGKIVSWLEMEYGLSEKESKASESFLLAAFLNLAMCYLKLREYTKAVECCDKALGLDSANEKGLYRRGEAQLLMNEFESAKGDFEKVLEVNPQNKAARLQISMCQKKAKEHNERDRRIYANMFKKFAEQDAKEEANKAMGKKTSEGVTNEKGTDSQAMEEEKPEGHV
